# According to patent publication US20100204295A1, “TREATMENT OF ALLERGIC DISEASE WITH IMMUNOMODULATOR COMPOUNDS” (SCICLONE PHARMACEUTICALS, INC., priority 2007, published 2010):
# Experiment: Interference of SCV-07 with EPO, MPO and OD412 measurements in vitro
# Settings: SCV-07 at 0.3 ug/ml
structure (smiles),measurement,value
"N[C@H](CCC(=O)N[C@@H](Cc1c[nH]c2ccccc12)C(=O)O)C(=O)O [SCV-07, γ-D-glutamyl-L-tryptophan]",Interference with OD 412 measurements in vitro,did not interfere
